Reference: the supplement of paper PMC12067093, “Discovery and optimisation of a covalent ligand for TRIM25 and its application to targeted protein ubiquitination” (Chemical Science, 2025)
This is one part of the list.

The chains behind the UniProt entries cited, without tags or fusion partners. Where a name states a change or a piece, a line headed by the entry shows the natural chain unless it says otherwise.
UniProt P42331: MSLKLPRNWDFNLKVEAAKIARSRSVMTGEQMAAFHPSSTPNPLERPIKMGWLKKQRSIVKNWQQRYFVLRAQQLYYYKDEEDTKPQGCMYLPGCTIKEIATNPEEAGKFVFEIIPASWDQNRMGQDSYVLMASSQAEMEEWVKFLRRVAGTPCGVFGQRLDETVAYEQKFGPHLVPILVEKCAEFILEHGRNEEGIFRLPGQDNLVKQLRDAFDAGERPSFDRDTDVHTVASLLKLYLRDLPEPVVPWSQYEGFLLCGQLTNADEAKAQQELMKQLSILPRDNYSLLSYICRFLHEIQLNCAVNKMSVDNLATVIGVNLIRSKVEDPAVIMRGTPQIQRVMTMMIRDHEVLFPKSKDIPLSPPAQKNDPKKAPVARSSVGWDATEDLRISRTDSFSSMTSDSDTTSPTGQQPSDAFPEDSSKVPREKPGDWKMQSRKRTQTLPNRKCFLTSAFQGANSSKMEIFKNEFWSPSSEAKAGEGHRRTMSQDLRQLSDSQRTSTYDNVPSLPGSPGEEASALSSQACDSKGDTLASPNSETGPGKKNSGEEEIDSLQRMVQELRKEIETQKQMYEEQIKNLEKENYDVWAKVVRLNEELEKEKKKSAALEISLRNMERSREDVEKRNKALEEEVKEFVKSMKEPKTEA
UniProt Q92888: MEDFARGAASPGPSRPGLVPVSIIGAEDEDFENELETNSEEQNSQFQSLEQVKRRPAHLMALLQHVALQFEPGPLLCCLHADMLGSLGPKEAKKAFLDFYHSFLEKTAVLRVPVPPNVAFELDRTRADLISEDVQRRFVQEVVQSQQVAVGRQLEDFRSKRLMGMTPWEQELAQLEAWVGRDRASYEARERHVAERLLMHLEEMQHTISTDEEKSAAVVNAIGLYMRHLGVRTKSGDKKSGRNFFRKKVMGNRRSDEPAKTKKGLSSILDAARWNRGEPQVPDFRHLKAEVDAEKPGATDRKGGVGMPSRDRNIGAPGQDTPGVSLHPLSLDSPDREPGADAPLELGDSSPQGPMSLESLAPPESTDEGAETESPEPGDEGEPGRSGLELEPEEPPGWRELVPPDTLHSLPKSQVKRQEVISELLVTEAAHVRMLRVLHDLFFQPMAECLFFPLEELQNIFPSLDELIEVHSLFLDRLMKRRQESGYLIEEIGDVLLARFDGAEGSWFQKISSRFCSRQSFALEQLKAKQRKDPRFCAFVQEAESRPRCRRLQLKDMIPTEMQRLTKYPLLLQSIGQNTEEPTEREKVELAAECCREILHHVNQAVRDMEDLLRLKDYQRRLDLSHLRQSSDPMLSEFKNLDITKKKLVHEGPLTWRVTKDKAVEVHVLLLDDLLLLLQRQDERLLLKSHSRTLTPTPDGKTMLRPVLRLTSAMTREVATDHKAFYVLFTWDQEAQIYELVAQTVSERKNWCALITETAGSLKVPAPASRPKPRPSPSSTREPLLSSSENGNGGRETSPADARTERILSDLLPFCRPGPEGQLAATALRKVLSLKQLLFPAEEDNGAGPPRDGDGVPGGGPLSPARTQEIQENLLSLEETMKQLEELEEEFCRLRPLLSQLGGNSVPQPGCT
UniProt Q13795: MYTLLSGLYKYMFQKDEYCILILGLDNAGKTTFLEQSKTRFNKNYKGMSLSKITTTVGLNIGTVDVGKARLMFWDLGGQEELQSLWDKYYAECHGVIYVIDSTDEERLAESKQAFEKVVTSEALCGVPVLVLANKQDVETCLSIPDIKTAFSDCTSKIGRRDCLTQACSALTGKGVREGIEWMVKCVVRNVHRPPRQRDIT
UniProt Q7Z2E3: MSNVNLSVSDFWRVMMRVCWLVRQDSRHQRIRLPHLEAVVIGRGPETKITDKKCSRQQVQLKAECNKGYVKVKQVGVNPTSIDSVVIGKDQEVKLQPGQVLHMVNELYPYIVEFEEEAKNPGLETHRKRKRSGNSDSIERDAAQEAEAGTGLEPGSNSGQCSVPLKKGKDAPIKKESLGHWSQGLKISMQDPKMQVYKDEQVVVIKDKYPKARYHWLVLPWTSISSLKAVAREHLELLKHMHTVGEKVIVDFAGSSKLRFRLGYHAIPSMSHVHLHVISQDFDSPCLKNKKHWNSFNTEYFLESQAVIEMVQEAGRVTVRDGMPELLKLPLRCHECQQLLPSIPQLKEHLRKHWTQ
UniProt O95376: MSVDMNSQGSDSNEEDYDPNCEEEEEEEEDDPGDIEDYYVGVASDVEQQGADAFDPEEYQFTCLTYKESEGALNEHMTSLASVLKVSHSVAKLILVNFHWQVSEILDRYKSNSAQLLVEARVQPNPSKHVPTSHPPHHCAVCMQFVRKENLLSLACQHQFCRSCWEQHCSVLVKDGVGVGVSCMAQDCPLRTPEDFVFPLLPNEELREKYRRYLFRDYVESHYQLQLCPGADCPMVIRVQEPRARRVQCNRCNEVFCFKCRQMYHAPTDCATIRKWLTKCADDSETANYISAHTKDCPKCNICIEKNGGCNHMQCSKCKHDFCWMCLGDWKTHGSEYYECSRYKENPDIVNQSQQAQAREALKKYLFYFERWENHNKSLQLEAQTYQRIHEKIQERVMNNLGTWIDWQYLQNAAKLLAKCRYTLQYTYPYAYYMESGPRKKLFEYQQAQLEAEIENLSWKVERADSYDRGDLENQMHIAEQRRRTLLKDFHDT
UniProt Q92974: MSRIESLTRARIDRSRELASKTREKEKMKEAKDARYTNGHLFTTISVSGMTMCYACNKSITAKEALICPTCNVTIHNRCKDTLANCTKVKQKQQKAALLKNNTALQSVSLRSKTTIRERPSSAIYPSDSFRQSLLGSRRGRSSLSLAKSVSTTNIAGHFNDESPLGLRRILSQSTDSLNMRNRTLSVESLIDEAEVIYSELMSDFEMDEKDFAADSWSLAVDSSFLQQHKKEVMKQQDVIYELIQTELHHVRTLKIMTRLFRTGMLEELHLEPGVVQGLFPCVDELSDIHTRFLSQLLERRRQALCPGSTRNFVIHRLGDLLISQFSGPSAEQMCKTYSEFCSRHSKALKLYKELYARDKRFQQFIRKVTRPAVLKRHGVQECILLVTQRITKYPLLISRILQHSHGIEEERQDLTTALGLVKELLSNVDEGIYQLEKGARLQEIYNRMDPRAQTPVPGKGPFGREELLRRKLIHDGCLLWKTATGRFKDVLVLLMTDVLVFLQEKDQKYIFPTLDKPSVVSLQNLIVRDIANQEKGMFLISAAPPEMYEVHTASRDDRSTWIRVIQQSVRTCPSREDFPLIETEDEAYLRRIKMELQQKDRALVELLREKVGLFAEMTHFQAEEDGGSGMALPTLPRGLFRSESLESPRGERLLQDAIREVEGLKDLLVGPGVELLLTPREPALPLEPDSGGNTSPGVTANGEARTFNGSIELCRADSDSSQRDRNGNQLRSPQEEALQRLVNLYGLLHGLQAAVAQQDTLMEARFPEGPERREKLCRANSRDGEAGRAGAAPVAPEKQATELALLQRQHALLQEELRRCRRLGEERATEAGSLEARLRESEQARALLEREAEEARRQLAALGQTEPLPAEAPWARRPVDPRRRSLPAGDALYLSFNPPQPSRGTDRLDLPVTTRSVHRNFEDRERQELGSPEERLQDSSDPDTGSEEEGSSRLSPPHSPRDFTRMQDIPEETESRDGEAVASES
UniProt Q8N8R7: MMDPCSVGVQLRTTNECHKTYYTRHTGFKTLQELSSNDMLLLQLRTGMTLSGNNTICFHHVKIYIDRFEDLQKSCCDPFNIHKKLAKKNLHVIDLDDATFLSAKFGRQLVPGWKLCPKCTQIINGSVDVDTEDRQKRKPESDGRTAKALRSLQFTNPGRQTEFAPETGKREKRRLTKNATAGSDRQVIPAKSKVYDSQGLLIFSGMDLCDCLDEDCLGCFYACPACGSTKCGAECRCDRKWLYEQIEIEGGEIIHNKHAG
UniProt P36405: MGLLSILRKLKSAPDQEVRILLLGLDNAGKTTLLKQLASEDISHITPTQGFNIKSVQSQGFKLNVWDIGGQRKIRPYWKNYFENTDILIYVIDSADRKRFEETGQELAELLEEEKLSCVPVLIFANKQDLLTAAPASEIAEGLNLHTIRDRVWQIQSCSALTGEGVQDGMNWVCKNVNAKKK
UniProt Q9Y4X5: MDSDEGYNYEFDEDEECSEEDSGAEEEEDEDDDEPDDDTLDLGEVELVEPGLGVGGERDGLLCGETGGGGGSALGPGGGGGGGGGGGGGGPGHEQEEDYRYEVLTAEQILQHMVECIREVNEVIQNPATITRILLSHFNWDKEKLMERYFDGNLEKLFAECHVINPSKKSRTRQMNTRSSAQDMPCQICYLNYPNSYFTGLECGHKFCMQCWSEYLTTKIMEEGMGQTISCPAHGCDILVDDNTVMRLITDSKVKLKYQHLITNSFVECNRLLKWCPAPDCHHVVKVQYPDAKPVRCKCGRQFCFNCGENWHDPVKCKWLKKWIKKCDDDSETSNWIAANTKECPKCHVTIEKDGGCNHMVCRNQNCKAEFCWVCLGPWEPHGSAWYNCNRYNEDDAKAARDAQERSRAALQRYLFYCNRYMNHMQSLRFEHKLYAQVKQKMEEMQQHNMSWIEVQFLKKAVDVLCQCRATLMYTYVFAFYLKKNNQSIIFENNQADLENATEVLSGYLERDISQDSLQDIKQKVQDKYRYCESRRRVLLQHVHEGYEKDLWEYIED
UniProt Q96P48: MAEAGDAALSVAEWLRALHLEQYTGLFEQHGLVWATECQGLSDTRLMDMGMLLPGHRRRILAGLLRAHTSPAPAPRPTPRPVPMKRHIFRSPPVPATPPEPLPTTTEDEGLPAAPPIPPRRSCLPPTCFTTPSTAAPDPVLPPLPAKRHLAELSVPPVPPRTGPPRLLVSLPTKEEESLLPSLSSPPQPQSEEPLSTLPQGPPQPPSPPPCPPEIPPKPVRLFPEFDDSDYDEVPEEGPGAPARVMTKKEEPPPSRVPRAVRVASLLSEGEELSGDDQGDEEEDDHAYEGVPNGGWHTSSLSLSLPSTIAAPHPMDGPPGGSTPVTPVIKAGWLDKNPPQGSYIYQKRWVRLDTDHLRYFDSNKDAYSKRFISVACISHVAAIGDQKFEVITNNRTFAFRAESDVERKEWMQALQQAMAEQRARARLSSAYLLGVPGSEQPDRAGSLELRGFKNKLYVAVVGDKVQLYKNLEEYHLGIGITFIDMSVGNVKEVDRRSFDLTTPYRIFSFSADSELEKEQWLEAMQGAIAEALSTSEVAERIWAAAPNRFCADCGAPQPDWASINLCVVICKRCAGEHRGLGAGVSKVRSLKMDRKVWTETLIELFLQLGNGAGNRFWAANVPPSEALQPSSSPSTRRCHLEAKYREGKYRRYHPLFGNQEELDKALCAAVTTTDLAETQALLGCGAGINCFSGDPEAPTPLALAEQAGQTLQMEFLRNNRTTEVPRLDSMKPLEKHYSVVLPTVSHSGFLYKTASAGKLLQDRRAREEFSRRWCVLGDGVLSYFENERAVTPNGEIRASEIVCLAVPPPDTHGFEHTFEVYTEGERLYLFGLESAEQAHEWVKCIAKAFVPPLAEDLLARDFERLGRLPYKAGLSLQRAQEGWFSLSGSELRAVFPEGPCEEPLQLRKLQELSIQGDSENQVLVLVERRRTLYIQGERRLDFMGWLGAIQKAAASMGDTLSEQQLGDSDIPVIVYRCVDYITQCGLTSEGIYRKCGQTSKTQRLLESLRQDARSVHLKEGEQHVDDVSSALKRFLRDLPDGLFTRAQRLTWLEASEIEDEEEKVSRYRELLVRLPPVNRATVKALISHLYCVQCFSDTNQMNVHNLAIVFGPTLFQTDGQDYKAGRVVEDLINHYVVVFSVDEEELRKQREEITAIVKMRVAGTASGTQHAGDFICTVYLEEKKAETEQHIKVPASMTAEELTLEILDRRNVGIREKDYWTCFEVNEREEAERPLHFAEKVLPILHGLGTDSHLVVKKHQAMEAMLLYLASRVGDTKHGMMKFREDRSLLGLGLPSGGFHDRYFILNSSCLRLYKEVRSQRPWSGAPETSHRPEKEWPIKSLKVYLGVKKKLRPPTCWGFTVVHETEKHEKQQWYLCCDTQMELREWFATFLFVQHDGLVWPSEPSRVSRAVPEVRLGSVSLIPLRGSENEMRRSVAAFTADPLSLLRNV
UniProt Q6NXE6: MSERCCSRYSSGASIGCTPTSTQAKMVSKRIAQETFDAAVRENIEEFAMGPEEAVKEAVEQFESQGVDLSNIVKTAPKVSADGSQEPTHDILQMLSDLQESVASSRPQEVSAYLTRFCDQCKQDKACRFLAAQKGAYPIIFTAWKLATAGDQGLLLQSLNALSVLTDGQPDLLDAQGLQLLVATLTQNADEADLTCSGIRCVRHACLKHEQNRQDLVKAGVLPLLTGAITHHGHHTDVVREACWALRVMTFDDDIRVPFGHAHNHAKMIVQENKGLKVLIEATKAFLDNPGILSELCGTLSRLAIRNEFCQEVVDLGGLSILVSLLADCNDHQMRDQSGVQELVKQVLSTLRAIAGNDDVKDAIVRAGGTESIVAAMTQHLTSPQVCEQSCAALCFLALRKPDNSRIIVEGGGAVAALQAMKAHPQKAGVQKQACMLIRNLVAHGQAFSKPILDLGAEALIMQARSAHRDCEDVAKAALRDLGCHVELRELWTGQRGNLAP

Compound: Cc1cc(ccc1-c1ccccc1)C(=O)N1CCCN(CC1)C(=O)CCl [compound 10]
Experiment: probe-labelled cysteine peptide fold change vs DMSO (competition) (log2 fold change); higher = less target engagement (more negative = stronger competition)
Settings: THP-1, incubation time: 4 h
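Further: competitive profiling in live THP-1 cells: cysteine peptides tagged with an iodoacetamide desthiobiotin (IA-DTB) probe, intensity after compound treatment relative to DMSO-treated cells.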

Row | Target | probe-labelled cysteine peptide fold change (10 µM) | probe-labelled cysteine peptide fold change (50 µM)
1 | ARHGAP25_P42331_292_DNYSLLSYICR (UniProt P42331) | 0.0762 | -0.065
2 | ARHGEF1_Q92888_537_FCAFVQEAESRPR (UniProt Q92888) | 0.00956 | -0.0828
3 | ARFRP1_Q13795_125_VVTSEALCGVPVLVLANK (UniProt Q13795) | -0.0685 | -0.232
4 | ARHGEF1_Q92888_815_ILSDLLPFCR (UniProt Q92888) | 0.0999 | -0.0607
5 | ARMC1_Q9NVT9_69_YLAECR (UniProt Q9NVT9) | -0.137 | -0.537
6 | ARID1A_O14497_1874_TELLPSRPHAPCPPAPR (UniProt O14497) | -0.093 | -0.032
7 | ARHGEF12_Q9NZN5_784_EVLLGLKPCEIKR (UniProt Q9NZN5) | -0.122 | -0.578
8 | APPL1_Q9UKG1_368_KDHEEWICTINNISK (UniProt Q9UKG1) | -0.00318 | -0.0957
9 | APTX_Q7Z2E3_286_LGYHAIPSMSHVHLHVISQDFDSPCLK (UniProt Q7Z2E3) | -0.158 | -0.00366
10 | ARMCX3_Q9UH62_52_MAEGGSGDVDDAGDCSGAR (UniProt Q9UH62) | -0.34 | -0.35
11 | ARIH2_O95376_323_HDFCWMCLGDWK (UniProt O95376) | -0.12 | 0.00552
12 | ARHGAP17_Q68EM7_190_EEMDEAGNKVEQCK (UniProt Q68EM7) | 0.0864 | 0.151
13 | ARHGEF2_Q92974_383_RHGVQECILLVTQR (UniProt Q92974) | 0.0536 | 0.395
14 | AQR_O60306_28_KIVAPTVSQINAEFVTQLACK (UniProt O60306) | 0.0774 | -0.504
15 | ARFRP1_Q13795_141_QDVETCLSIPDIK (UniProt Q13795) | -0.0506 | 0.434
16 | ARL14EP_Q8N8R7_57_TGMTLSGNNTICFHHVK (UniProt Q8N8R7) | 0.111 | -0.0548
17 | ARL6IP4_Q66PJ3-3_220_NCSASTSQER (UniProt Q66PJ3) | -0.274 | -0.819
18 | ARL14EP_Q8N8R7_5_MMDPCSVGVQLR (UniProt Q8N8R7) | 0.353 | -0.0951

Part of the list above in a different format:
Row	Target	probe-labelled cysteine peptide fold change (10 µM)	probe-labelled cysteine peptide fold change (50 µM)
1	ARHGAP25_P42331_292_DNYSLLSYICR (UniProt P42331)	0.0762	-0.065
4	ARHGEF1_Q92888_815_ILSDLLPFCR (UniProt Q92888)	0.0999	-0.0607

(next part)

Row | Target | probe-labelled cysteine peptide fold change (10 µM) | probe-labelled cysteine peptide fold change (50 µM)
19 | ARPC1B_O15143_227_VAWVSHDSTVCLADADKK (UniProt O15143) | 0.103 | -0.0807
20 | ARHGEF2_Q92974_68_EALICPTCNVTIHNR (UniProt Q92974) | -0.00613 | 0.0522
21 | ARHGEF11_O15085_793_LFPNLPELIEIHNSWCEAMK (UniProt O15085) | 0.178 | 0.0986
22 | ARIH2_O95376_310_NGGCNHMQCSK (UniProt O95376) | 0.0253 | -0.208
23 | ARHGEF10_O15013_1335_ASSALVVCGGQGHR (UniProt O15013) | -0.217 | -0.402
24 | ARHGAP45_Q92619_324_IAHNCR (UniProt Q92619) | 0.112 | 0.138
25 | ARL3_P36405_118_LSCVPVLIFANK (UniProt P36405) | -0.0174 | 0.052
26 | ARHGAP44_Q17R89_193_ADALREEMEEAANRVEICR (UniProt Q17R89) | -0.0472 | -0.212
27 | ARIH1_Q9Y4X5_418_YLFYCNR (UniProt Q9Y4X5) | 0.0904 | 0.506
28 | ARCN1_P48444_441_RNTLEWCLPVIDAK (UniProt P48444) | 0.129 | -0.00667
29 | ARHGEF6_Q15052_530_IVVHCNNNQDFQEWLEQLNR (UniProt Q15052) | 0.0109 | 0.158
30 | ARAP1_Q96P48_900_AVFPEGPCEEPLQLRK (UniProt Q96P48) | -0.188 | -0.248
31 | ARHGAP30_Q7Z6I6_965_IHVAPANPCPRPGR (UniProt Q7Z6I6) | -0.0691 | -0.156
32 | ARRB1_P49407_125_KLGEHAYPFTFEIPPNLPCSVTLQPGPEDTGK (UniProt P49407) | -0.0331 | 0.0334
33 | ARHGDIB_P52566_76_LTLVCESAPGPITMDLTGDLEALKK (UniProt P52566) | 0.337 | 0.372
34 | ARIH1_Q9Y4X5_304_QFCFNCGENWHDPVK (UniProt Q9Y4X5) | 0.0542 | -0.0254
35 | ARMC6_Q6NXE6_121_FCDQCK (UniProt Q6NXE6) | -0.142 | -0.663
36 | ARFGEF1_Q9Y6D6_102_IVSTSLDCLQK (UniProt Q9Y6D6) | 0.0609 | 0.0686
